Results published in patent publication CN108341870A.
No constants are given. Whether binding was seen depends on the method and setting. Some binding calls cover weakened binding; strength is not graded here.

Chains of the proteins cited; added tags and fusions are not shown. Residues count along the entry.
UniProt P02769, residues 25-607: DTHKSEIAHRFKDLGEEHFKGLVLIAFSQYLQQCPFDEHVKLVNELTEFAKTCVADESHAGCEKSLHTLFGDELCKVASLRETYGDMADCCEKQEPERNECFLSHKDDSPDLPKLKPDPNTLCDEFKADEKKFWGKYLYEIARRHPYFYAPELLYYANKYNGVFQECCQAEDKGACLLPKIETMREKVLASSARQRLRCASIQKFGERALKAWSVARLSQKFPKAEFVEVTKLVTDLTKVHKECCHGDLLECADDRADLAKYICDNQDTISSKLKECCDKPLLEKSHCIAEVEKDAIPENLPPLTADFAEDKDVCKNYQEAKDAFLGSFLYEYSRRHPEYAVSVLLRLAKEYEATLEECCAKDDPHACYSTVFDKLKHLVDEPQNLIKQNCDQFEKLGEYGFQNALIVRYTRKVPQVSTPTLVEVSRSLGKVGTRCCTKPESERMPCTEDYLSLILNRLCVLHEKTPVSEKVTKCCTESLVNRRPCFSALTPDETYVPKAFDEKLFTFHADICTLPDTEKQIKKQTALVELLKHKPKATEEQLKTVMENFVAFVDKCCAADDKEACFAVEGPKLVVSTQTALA

Legend:
[1] = target: 牛血清白蛋白 (bovine serum albumin, BSA) (牛 (bovine)) (UniProt P02769); test: PHAGE-ELISA, BSA coated, phagemid clone in the binding step
[2] = target: 牛血清白蛋白 (bovine serum albumin, BSA) (牛 (bovine)) (UniProt P02769); test: PHAGE-ELISA, BSA coated, phagemid clone in the binding step, OD450

B1: 抗BSA纳米抗体 克隆7 (anti-BSA nanobody, phagemid clone 7) (VHH)
VHH: QLQLVESGGGLVQPGGSLRLSCAASGSTFGTYAVGWFRQAPGKEREGISCISGRGERTYYADSVKGRFTISRDNAKSVLYLQMNNVNAEDTAVYYCALARWRGSACGPITPMGQGTQVTVSS
binding [1]: binds
binding [2]: binds
